The list shows a part of the results.

By UniProt entry, the sequences of proteins in these tests, tags left out. Where a name states a change or a piece, a line headed by the entry shows the natural chain unless it says otherwise.
UniProt O43252: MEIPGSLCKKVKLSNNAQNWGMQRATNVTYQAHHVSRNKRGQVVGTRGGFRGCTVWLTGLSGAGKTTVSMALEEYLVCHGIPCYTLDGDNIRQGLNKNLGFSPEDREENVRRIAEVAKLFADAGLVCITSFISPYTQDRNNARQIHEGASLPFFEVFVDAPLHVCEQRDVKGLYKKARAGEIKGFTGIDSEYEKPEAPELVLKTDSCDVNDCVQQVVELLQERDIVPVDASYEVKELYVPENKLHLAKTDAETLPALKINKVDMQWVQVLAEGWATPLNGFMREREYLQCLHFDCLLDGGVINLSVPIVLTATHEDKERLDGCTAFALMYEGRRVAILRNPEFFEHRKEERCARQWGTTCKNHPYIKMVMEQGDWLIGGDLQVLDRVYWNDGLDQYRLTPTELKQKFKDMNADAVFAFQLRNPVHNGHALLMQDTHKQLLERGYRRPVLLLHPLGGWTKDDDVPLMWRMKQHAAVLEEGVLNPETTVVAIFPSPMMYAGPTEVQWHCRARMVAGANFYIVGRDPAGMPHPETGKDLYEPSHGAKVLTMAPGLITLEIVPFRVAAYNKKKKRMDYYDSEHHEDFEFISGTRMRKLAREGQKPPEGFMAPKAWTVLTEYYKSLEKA
UniProt Q9H0N5: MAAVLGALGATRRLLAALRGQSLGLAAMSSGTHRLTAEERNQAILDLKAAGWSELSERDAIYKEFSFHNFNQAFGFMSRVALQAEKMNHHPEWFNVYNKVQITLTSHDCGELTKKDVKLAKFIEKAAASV
UniProt Q9H2J4: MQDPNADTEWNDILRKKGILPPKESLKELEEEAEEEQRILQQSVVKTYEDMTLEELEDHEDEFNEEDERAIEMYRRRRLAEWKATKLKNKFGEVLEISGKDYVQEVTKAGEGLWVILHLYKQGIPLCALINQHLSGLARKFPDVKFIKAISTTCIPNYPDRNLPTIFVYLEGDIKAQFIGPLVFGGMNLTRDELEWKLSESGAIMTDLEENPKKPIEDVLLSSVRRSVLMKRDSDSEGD
UniProt P50479: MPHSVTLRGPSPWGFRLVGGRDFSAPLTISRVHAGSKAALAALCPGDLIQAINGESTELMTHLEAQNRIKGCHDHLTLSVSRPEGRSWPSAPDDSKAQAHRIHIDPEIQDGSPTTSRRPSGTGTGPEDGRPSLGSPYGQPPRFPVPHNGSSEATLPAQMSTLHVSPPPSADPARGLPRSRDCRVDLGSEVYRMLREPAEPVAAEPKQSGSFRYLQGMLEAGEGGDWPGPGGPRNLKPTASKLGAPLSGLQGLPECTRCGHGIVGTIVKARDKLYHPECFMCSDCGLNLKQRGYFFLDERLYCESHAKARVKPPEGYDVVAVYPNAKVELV
UniProt Q6P996: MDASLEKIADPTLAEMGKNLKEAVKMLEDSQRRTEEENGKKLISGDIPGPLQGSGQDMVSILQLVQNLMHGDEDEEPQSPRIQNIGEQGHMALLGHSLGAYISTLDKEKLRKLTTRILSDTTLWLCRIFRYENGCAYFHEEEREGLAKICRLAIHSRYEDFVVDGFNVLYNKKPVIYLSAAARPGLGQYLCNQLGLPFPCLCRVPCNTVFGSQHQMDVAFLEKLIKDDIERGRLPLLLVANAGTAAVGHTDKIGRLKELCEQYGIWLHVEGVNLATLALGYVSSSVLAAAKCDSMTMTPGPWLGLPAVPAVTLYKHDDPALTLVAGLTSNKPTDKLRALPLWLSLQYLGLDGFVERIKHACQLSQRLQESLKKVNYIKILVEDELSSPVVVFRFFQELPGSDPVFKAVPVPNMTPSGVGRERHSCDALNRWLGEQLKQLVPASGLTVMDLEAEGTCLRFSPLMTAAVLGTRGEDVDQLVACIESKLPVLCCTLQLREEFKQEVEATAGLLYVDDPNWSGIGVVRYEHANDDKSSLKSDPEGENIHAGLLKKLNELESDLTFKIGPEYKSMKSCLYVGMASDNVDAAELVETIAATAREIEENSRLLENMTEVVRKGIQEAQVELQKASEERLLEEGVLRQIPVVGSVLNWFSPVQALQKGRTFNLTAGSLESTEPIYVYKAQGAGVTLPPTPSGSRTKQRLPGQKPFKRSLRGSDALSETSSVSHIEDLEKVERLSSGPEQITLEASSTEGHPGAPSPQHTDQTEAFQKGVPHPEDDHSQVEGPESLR
UniProt P43034: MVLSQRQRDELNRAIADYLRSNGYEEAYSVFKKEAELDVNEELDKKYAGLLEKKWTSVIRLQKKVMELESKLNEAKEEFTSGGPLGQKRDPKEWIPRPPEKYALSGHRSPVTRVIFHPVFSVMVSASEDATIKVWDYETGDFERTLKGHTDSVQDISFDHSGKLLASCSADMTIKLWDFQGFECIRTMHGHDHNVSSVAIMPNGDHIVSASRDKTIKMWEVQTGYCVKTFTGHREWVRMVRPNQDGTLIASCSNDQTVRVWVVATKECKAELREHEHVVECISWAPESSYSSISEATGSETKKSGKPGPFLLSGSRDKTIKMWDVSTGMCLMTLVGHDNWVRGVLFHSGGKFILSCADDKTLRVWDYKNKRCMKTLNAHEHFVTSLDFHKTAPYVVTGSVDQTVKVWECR
UniProt Q8NEN9: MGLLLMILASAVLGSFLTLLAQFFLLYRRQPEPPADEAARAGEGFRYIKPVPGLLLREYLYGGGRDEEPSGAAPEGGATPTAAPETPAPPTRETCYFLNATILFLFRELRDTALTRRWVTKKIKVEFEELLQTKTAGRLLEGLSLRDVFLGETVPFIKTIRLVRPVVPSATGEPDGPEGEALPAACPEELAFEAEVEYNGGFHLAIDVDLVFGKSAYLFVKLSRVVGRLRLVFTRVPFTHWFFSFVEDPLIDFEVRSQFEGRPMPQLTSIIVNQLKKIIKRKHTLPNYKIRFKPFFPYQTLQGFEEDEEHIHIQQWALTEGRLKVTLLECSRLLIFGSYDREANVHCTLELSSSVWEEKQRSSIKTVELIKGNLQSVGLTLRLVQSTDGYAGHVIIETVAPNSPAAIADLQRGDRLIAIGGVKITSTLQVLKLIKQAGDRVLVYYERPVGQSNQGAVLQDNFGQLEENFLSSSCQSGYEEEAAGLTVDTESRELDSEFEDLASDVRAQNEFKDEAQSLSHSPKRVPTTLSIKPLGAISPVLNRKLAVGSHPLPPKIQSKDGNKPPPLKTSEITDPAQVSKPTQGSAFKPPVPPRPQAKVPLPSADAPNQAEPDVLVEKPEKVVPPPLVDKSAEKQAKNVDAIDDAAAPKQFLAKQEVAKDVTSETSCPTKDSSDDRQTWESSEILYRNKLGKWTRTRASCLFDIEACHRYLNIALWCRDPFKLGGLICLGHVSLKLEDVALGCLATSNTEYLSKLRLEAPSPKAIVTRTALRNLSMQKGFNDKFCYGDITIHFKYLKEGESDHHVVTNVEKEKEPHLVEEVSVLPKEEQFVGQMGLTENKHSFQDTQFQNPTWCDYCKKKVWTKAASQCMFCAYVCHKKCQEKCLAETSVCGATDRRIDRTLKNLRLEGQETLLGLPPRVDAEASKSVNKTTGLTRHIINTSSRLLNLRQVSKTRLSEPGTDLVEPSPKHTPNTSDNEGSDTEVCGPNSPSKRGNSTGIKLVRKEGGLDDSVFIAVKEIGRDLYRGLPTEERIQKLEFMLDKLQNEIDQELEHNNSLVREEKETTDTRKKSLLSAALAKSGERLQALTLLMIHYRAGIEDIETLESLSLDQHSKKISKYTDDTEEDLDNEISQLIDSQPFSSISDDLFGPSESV
UniProt P61457: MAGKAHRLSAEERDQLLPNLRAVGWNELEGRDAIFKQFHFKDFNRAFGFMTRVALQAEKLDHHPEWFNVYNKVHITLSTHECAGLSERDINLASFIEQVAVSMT
UniProt Q14554: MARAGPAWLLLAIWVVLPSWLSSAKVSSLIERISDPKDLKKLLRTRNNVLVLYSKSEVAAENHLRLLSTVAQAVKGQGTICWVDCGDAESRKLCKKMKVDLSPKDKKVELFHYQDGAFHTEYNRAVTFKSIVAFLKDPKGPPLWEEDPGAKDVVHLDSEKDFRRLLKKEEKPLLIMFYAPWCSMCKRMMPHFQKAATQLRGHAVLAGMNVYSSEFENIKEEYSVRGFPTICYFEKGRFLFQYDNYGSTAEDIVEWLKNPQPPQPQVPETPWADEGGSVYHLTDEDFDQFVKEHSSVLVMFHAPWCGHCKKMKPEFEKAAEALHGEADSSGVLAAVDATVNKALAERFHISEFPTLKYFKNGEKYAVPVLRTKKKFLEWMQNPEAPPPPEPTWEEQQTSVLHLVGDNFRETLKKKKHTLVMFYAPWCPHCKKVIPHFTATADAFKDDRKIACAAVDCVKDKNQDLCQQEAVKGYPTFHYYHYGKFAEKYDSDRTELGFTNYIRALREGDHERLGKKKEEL
UniProt O00764: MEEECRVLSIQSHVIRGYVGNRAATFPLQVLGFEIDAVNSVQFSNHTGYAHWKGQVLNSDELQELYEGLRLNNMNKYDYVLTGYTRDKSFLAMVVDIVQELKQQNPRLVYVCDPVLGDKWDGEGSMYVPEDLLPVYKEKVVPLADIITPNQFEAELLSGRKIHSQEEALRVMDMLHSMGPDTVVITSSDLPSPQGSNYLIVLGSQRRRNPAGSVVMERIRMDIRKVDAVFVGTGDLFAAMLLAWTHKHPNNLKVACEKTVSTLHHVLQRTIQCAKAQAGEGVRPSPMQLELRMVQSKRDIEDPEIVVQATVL
UniProt O43933: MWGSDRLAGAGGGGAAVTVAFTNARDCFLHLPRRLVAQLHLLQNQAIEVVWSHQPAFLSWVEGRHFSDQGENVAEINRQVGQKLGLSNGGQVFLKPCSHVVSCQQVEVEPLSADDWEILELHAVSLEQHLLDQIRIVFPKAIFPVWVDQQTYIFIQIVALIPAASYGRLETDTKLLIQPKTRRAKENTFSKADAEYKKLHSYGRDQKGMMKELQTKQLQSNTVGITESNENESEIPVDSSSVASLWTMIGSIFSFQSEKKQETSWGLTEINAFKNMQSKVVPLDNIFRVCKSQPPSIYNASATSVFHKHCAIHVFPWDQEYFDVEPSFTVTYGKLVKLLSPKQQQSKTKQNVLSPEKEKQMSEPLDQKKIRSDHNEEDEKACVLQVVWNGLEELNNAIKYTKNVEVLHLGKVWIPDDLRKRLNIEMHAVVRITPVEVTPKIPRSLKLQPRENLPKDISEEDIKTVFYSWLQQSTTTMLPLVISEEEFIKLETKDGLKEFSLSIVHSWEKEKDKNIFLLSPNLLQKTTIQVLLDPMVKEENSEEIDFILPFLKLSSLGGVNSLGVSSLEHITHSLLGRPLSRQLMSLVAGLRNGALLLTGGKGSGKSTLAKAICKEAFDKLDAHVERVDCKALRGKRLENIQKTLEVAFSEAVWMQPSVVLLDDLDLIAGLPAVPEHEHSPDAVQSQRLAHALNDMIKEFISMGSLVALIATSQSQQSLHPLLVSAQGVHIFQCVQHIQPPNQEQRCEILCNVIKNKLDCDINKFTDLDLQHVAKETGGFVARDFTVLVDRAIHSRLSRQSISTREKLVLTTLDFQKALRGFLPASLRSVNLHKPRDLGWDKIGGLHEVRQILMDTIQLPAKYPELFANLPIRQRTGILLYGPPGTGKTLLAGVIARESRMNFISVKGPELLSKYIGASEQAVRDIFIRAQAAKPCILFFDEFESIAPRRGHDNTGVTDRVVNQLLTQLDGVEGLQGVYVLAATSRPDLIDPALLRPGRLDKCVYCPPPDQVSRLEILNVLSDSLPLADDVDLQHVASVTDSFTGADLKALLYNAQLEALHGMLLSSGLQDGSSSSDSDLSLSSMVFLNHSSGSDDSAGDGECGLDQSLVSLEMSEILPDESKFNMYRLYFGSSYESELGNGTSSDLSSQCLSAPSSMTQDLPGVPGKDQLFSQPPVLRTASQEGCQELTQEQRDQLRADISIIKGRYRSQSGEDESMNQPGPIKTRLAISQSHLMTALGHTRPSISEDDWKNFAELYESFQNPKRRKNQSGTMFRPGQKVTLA
UniProt Q9BZ23: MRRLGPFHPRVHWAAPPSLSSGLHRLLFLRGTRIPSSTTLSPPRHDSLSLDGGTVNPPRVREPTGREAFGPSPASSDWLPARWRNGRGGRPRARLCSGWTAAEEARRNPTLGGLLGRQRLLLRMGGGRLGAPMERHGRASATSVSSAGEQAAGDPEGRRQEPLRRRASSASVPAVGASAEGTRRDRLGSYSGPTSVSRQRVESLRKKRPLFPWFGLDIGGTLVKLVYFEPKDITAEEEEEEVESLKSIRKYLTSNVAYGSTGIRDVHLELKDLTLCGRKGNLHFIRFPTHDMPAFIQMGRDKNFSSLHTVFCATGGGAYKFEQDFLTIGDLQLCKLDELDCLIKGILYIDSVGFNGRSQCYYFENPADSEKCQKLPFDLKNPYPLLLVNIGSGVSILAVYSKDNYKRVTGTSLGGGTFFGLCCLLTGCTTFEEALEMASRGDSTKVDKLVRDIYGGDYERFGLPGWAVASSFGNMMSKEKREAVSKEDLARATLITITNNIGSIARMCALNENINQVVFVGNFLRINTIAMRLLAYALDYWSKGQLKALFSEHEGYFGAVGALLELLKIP
UniProt Q9BPZ3: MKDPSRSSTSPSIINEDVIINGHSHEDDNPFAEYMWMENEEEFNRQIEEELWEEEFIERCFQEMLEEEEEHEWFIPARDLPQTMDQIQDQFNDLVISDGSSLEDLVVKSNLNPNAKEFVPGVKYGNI

Compound in one experiment: C=CC(=O)N1CCC[C@@H](n2nc(-c3ccc(Oc4ccccc4)cc3)c3c(N)ncnc32)C1 [ibrutinib]
Briefly: log2 fold change, soluble protein after heating vs DMSO (PISA); higher = thermal stabilisation; K562 cells, 10 uM, 30 min; active = over 0.2 and 3.5 SD of the protein, either way, in both replicates (recomputed). The procedure, abridged: (§1)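 K562 cells at 2×10^6 cells/mL were treated with 10 μM compound for 30 min. Aliquots were heated for 3 min across 48°C-58°C, pooled, and extracted in PBS with 0.5% NP-40 at 4°C; soluble protein was the supernatant after 21,000xg for 90 min. Soluble protein was quantified by TMTpro 16plex LC-MS/MS with channel sums equalised, and reported as log2 fold change in thermal stability against DMSO controls, with values from duplicates.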
Take PCSK9 (UniProt Q8NBP7): the log2 fold change was inactive: 0.006.
The same measure, in the same setting: next, PAPSS1 (UniProt O43252): inactive: -0.022; PDIA4 (UniProt P13667): inactive: -0.049; PABPC4 isoform 3 (UniProt Q13310): inactive: 0.055.
As to PCBD2 (UniProt Q9H0N5), the log2 fold change is inactive: -0.006.
For the target PDCL3 (UniProt Q9H2J4), the log2 fold change was inactive: -0.03.
In the case of PDLIM4 (UniProt P50479), the log2 fold change was inactive: -0.012.
For PCNA (UniProt P12004), the log2 fold change is inactive: 0.001.
Turning to PDXDC1 (UniProt Q6P996), the log2 fold change was inactive: -0.053.
Take PAFAH1B1 (UniProt P43034): the log2 fold change is inactive: 0.016.
The same measure, in the same setting: next, PDZD8 (UniProt Q8NEN9): inactive: -0.037.
Still for that read-out and setting: to PEX12 (UniProt O00623) belongs inactive: 0.112.
For PCBD1 (UniProt P61457), the log2 fold change is inactive: 0.032.
On the same count and under the same terms, next, PDIA5 (UniProt Q14554): inactive: -0.003.
For PDXK (UniProt O00764), the log2 fold change is inactive: 0.028.
For PBLD (UniProt P30039), the log2 fold change is inactive: -0.013.
The same measure, in the same setting: next, PEX1 (UniProt O43933): inactive: -0.006; PANK2 (UniProt Q9BZ23): inactive: 0.041.

Compound in a further experiment: CC(=O)c1cnc2ccc(-c3cc(Cl)c(O)c(Cl)c3)nc2c1N[C@H]1CC[C@H](CN(C)C)CC1
Described as above. The procedure, abridged:
as §1
Take PCYOX1 (UniProt Q9UHG3): the log2 fold change is inactive: -0.019.
On the same count and under the same terms, next, PDCL (UniProt Q13371): inactive: 0.071; PDCD5 (UniProt O14737): inactive: -0.005.
Still for that read-out and setting: next, PAGR1 (UniProt Q9BTK6): inactive: 0.042.
Regarding PDCD11 (UniProt Q14690), the log2 fold change is inactive: -0.118.
Same read-out and setting: to PDSS1 (UniProt Q5T2R2) belongs inactive: -0.152; to PAK3 isoform 3 (UniProt O75914), inactive: -0.007.
Same read-out and setting: to PAIP2 (UniProt Q9BPZ3) belongs inactive: 0.026.
Turning to PDF (UniProt Q9HBH1), the log2 fold change is inactive: 0.014.
Regarding PANX1 (UniProt Q96RD7), the log2 fold change was inactive: -0.032.
Consider PDHX (UniProt O00330), for which the log2 fold change was inactive: 0.148.
Same read-out and setting: next, PDHB (UniProt P11177): inactive: 0.051.
For the target PAK2 (UniProt Q13177), the log2 fold change is inactive: -0.009.
For the target PEX14 (UniProt O75381), the log2 fold change is inactive: 0.018.
Same read-out and setting: to PASK (UniProt Q96RG2) belongs inactive: 0; to PCSK9 (UniProt Q8NBP7), inactive: -0.061.
As to PAPSS1 (UniProt O43252), the log2 fold change was inactive: 0.009.
Consider PDIA4 (UniProt P13667), for which the log2 fold change was inactive: 0.02.
Take PABPC4 isoform 3 (UniProt Q13310): the log2 fold change is inactive: -0.017.
Same read-out and setting: to PCBD2 (UniProt Q9H0N5) belongs inactive: 0.027; to PDCL3 (UniProt Q9H2J4), inactive: 0.002; to PDLIM4 (UniProt P50479), inactive: -0.033.
With PCNA (UniProt P12004), the log2 fold change is inactive: -0.018.
Still for that read-out and setting: next, PDXDC1 (UniProt Q6P996): inactive: -0.083.
Still for that read-out and setting: next, PAFAH1B1 (UniProt P43034): inactive: -0.011; PDZD8 (UniProt Q8NEN9): inactive: -0.03; PEX12 (UniProt O00623): inactive: 0.037.
Same read-out and setting: next, PCBD1 (UniProt P61457): inactive: 0.02; PDIA5 (UniProt Q14554): inactive: 0.059; PDXK (UniProt O00764): inactive: -0.007.
Take PBLD (UniProt P30039): the log2 fold change was inactive: 0.005.
The same measure, in the same setting: to PEX1 (UniProt O43933) belongs inactive: -0.051.
Take PANK2 (UniProt Q9BZ23): the log2 fold change is inactive: 0.003.

Compound in the next experiment: CC(C)(C)Cn1c(N)nc2ccc(-c3[nH]c(C(C)(C)C)nc3-c3ccc(F)cc3)nc21 [ralimetinib]
The description is as above. The procedure, abridged: as §1
PCYOX1 (UniProt Q9UHG3): the log2 fold change was inactive: -0.044.
Still for that read-out and setting: next, PDCL (UniProt Q13371): inactive: 0.059; PDCD5 (UniProt O14737): inactive: -0.08.
Same read-out and setting: next, PAGR1 (UniProt Q9BTK6): inactive: -0.21; PDCD11 (UniProt Q14690): inactive: -0.083.
On the same count and under the same terms, next, PDSS1 (UniProt Q5T2R2): inactive: -0.077; PAK3 isoform 3 (UniProt O75914): inactive: -0.007; PAIP2 (UniProt Q9BPZ3): inactive: 0.051.
Consider PDF (UniProt Q9HBH1), for which the log2 fold change is inactive: -0.024.
For PANX1 (UniProt Q96RD7), the log2 fold change was inactive: -0.08.
Consider PDHX (UniProt O00330), for which the log2 fold change was inactive: 0.081.
Take PDHB (UniProt P11177): the log2 fold change was inactive: 0.075.
Still for that read-out and setting: next, PAK2 (UniProt Q13177): inactive: -0.046; PEX14 (UniProt O75381): inactive: -0.015.
On the same count and under the same terms, to PASK (UniProt Q96RG2) belongs inactive: -0.005; to PCSK9 (UniProt Q8NBP7), inactive: 0.012.
PAPSS1 (UniProt O43252): the log2 fold change is inactive: -0.058.
Same read-out and setting: next, PDIA4 (UniProt P13667): inactive: 0.044; PABPC4 isoform 3 (UniProt Q13310): inactive: 0.035.
PCBD2 (UniProt Q9H0N5): the log2 fold change was inactive: -0.09.
The same measure, in the same setting: to PDCL3 (UniProt Q9H2J4) belongs inactive: -0.04.
For PDLIM4 (UniProt P50479), the log2 fold change is inactive: 0.015.
On to PCNA (UniProt P12004), for which the log2 fold change is inactive: -0.048.
Same read-out and setting: next, PDXDC1 (UniProt Q6P996): inactive: 0.119.
The same measure, in the same setting: to PAFAH1B1 (UniProt P43034) belongs inactive: -0.059; to PDZD8 (UniProt Q8NEN9), inactive: -0.011.
In the case of PEX12 (UniProt O00623), the log2 fold change is inactive: 0.056.
Same read-out and setting: to PCBD1 (UniProt P61457) belongs inactive: -0.036.
On the same count and under the same terms, to PDIA5 (UniProt Q14554) belongs inactive: 0.045.
PDXK (UniProt O00764): the log2 fold change was inactive: 0.007.
On the same count and under the same terms, next, PBLD (UniProt P30039): inactive: 0.038; PEX1 (UniProt O43933): inactive: -0.028; PANK2 (UniProt Q9BZ23): inactive: 0.044.

The values are drawn from the supplement of paper PMC10849652.
